Earlier results in US9040586B2, “Veterinary compositions for controlling ecto- and endoparasites in bovines, use of these compositions, use of IGR substances associated with microminerals, method for controlling ecto- and endoparasites in bovines and kit” (Champion Farmoquimico Ltda., priority 2012, dated 2015).
Some of these results come from one statement about several compounds together.

System: gastrointestinal nematodes of cattle
Settings: farms with poor reduction: ivermectin 23 of 25, albendazole 5 of 25, levamisole 2 of 25 cattle farms; cited from earlier work

CCCSc1ccc2nc(NC(=O)OC)[nH]c2c1 [albendazole]
reduction in FEC following treatment: < 90%
